The nature of assay [1]: Validation of Assay for Modulators of Lamin A Splicing (AID 1459). Particulars: Lamin A splicing dual RFP/GFP fluorescence reporter, ratio. The essentials: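 Splicing correction read as GFP (500-530 nm) over DsRed2 (575-640 nm) object intensity after 48 h compound exposure of reporter HeLa S3 clones (600 cells/well, 2% FBS medium); ancitabine and cycloheximide titrations, 0.5% DMSO as vehicle.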

Assay [2] in a line: qHTS Assay for Lipid Storage Modulators (AID 1519). Particulars: Drosophila S3 cells, BODIPY lipid droplet/cell ratio, laser cytometry, cells loaded with oleic acid. In outline:
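Cells seeded at 5,000 per well were treated with compounds over a concentration series and loaded with oleic acid (400 uM, as added). Lipid droplet fluorescence (488 nm excitation, 500-530 nm channel) was read by laser-scanning cytometry and normalized to 20 uM Triacsin C.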

Assay [3] is described as follows: qHTS Assay for Modulators of Human Peripheral Myelin Protein 22 (PMP22) Expression/Activity (AID 1967). Particulars: Cell-based PMP22 reporter, dual-color luciferase ratio. The essentials: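 Readout is the corrected green/red luminescence ratio after 24 h compound exposure, normalised to untreated cells (0%). Engineered MSC80 mouse Schwann cells express green luciferase from the mouse Pmp22 promoter and red luciferase from EF-alpha as internal control.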

The nature of assay [4]: Nrf2 qHTS screen for inhibitors: Validation (AID 493153). Particulars: A549 ARE-Fluc reporter, 18-24 h; AC50: CellTiter-Fluor fluorescence read, measured here: cytotoxicity CellTiter-Fluor AC50; viability change: measured here: cytotoxicity max response. The essentials: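 A549 cells carrying ARE-firefly luciferase reporter, 5000 cells/well in 5% FBS OPTI-MEM, treated with compound over a concentration series for 18-24 h at 37 C. Luciferase luminescence gave Nrf2 activity; CellTiter-Fluor fluorescence gave viability.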

The nature of assay [5]: qHTS Validation Assay to Find Inhibitors of Chronic Active B-Cell Receptor Signaling (AID 485345). As to conditions: ABC-DLBCL cells, chronic BCR signaling reporter. In outline:
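Read-out: ratio of filter-corrected green (IkappaBalpha fusion) to red (native) luciferase signal in doxycycline-induced TMD8 cells after 4 h at 37C. Titration spanned 46 uM–3 nM; Data were normalised to basal cells and 10 uM MG-132 wells.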

Assay [6] is described as follows: qHTS Assay for Inhibitors of PDE-IV (AID 607). Particulars: HEK293 ACTOne CNG channel cells, membrane potential fluorescence; measured here: parental cell counter-screen. In outline:
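Live HEK293 cells with a modified cyclic nucleotide-gated (CNG) channel report intracellular cAMP via membrane-potential dye fluorescence (ex 535/em 590 nm). Endogenous PDE-IV was targeted. Compounds were tested at up to 22.9 uM final; RO 20-1724 100 uM served as control.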

The nature of assay [7]: qHTS assay for small molecule antagonists of androgen receptor signaling (AID 588516). As to conditions: AR-UAS-bla HEK293, beta-lactamase ratio, antagonist mode, 16 h; measured here: W460 blue channel fit. The essentials:
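Cells were plated and incubated 5 h, compounds added in titration, then R1881 (10 nM final) as agonist. After 16 h at 37 C, CCF4 substrate was loaded for 2 h at room temperature and fluorescence measured.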

Assay [8] in a line: qHTS assay for small molecule antagonists of peroxisome proliferator-activated receptor gamma signaling (AID 588537). Particulars: HEK293 PPARg-UAS-bla, beta-lactamase ratio, antagonist mode; measured here: W460 blue channel. In outline:
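Antagonist mode, beta-lactamase reporter in HEK293; charcoal/dextran FBS 1%; 3000 cells/well, 37 C 6-6.5 h; cpd titration + rosiglitazone 50 nM final, 16 h 37 C; CCF4, 2 h RT; 460/530 nm; Hill fit → IC50, efficacy.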

A short description of assay [9]: qHTS assay for small molecule agonists of retinoid X receptor alpha signaling (AID 588544). Particulars: HEK293T RXRa-UAS-bla, beta-lactamase reporter, 18 h; 530 nm emission.
Assay [10] is described as follows: qHTS assay for small molecule antagonists of retinoid X receptor alpha signaling (AID 588546).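 Note: cells stimulated with 9-cis-retinoic acid as agonist; % is set by controls: 0 for no effect and ±100 for the full control effect.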 Particulars: HEK293T RXRa-UAS-bla, beta-lactamase ratio, antagonist mode; measured here: W530 green channel, cytotoxicity proxy. The essentials: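 Beta-lactamase reporter inhibition, read as CCF4 fluorescence ratio (ex 405, em 460/530 nm) after 2 h at RT. HEK293T UAS-bla cells, 2500/well, were stimulated with 9-cis-RA at 500 or 100 nM final alongside test compound for 18 h at 37 C.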

The nature of assay [11]: qHTS drug screen for cell cycle checkpoint inhibitors in PARPi-resistant BRCA-mutant ovarian cancer cell lines. (AID 1963452). As to conditions: PEO1/OlaR viability, CellTiter-Glo luminescence, 96 h; measured here: PEO1 parental viability. The essentials:
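PEO1, PEO4 and PEO1/OlaR ovarian cancer cells, 600 per well, exposed 96 h at 37C to a dilution series. Viability read by CellTiter-Glo luminescence, normalized to DMSO and empty wells; activity summarized as Z-AUC.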

Assay [12] is described as follows: qHTS for identification of novel therapeutic agents for treatment of microphthalmiaassociated transcription factor (MiT) renal cell carcinoma (RCC) (AID 1963991). Particulars: CellTiter-Glo, 48 h; for z-score: stronger effect = lower value. The essentials: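 Viability of three TFE3-fusion renal carcinoma lines measured by CellTiter-Glo after 48 h treatment with each of 1912 compounds at 11 concentrations. Responses scaled between DMSO (100%) and empty wells (0%) before curve fitting.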

The mark [13] stands for this setting: measured here: cell count channel max response.
Setting [14] is: measured here: cell number channel AC50.
[15] abbreviates: measured here: lipid (BODIPY) channel AC50.
Where [16] appears, read: measured here: lipid channel max response.
[17] abbreviates: measured here: green reporter channel AC50, mouse Pmp22 promoter in mouse Schwann cells.
Where [18] appears, read: measured here: red reporter channel AC50, EF-alpha promoter control reporter in MSC80 mouse Schwann cells.
[19] abbreviates: measured here: CBG/CBR ratio read-out.
Setting [20] is: measured here: CBR control luciferase (viability counter).

Values joined by “and” are separate entries in the source; they are usually repeats but may differ in a detail not shown here. Identical values can stand only once. Some of the results follow. The main result of the screen is listed elsewhere. These columns were measured beside it and carry no call. For part of these data: Compounds called inactive in the main read-out are mostly missing here. For part of these data: Potencies come from curve fits of mixed quality, noted in brackets.

Consider `Cc1cccc(C(=O)NCN2CCN(c3ccccc3C#N)CC2)c1`, for which the AC50 is 35.5 µM [falling, single point] in assay [1] (measured here: GFP channel); 35.5 µM [falling, single point] in [1] (measured here: RFP channel); 14.1 µM [rising, partial curve, poor fit] in assay [2] (setting [14]); 14.1 µM [rising, partial curve, poor fit] in assay [2] (setting [15]); 95.3 µM [falling, single point] in assay [3] (setting [17]); 95.3 µM [falling, single point] in assay [3] (setting [18]). In addition, the max response in [2] (setting [13]) came out at 55.3%; in [2] (setting [16]) it was 70.9%. Besides, the viability change in [4] is -0.858%.
Turning to `O=Nc1ccc2oc(=O)ccc2c1`, the AC50 in assay [1] (measured here: GFP channel) was 35.5 µM [falling, single point]; in assay [1] (measured here: RFP channel), 25.1 µM [falling, partial curve]; in [2] (setting [14]), 8.91 µM [falling, full curve, poor fit]; in assay [2] (setting [15]), 20 µM [falling, partial curve, poor fit]; in assay [3] (setting [17]), 67.5 µM [falling, partial curve]; in assay [3] (setting [18]), 21.3 µM [falling, partial curve]. Further, the AC50 in assay [5] (setting [19]) was 16.4 µM [falling, partial curve]; in [5] (setting [20]), 7.31 µM [falling, partial curve]. Further, the max response in assay [2] (setting [13]) is -38.3%; in [2] (setting [16]), -79.6%.
For `O=c1ccc2c(OCCCCc3ccccc3)c3ccoc3cc2o1`, the AC50 in [6] is 12.6 µM [rising, partial curve]; in assay [1] (measured here: GFP channel) it was 11.2 µM [rising, single point]; in [1] (measured here: RFP channel) it was 11.2 µM [rising, single point]; in [2] (setting [14]) it was 39.8 µM [rising, partial curve, poor fit]; in [2] (setting [15]), 39.8 µM [rising, partial curve, poor fit]; in assay [3] (setting [17]), 47.8 µM [falling, partial curve]. In addition, the half-maximal activity concentration (AC50) in assay [5] (setting [20]) was 11.6 µM [rising, partial curve]. In addition, the max response worked out at 56.4% in assay [2] (setting [13]) and 58.6% in assay [2] (setting [16]).
`CC(C)N(CCC(=O)c1ccc2ccccc2c1)Cc1ccccc1`: the AC50 in assay [1] (measured here: GFP channel) is 10 µM [falling, partial curve]; in assay [1] (measured here: RFP channel) it was 10 µM [falling, partial curve]; in [2] (setting [14]) it was 7.08 µM [rising, full curve, poor fit] and 14.1 µM [falling, partial curve, poor fit]; in assay [2] (setting [15]), 25.1 µM [falling, partial curve, poor fit] and 12.6 µM [falling, partial curve, poor fit]; in assay [3] (setting [17]), 26.9 µM [falling, full curve]; in assay [3] (setting [18]), 21.3 µM [falling, full curve]. Further, the AC50 was 4.61 µM [falling, single point] in assay [5] (setting [19]) and 9.2 µM [falling, partial curve] in [5] (setting [20]). Besides, the max response in assay [2] (setting [13]) was 33.8% and -99.2%; in [2] (setting [16]), -80% and -103%.
For the molecule `CCCCN1CCC(COC(=O)c2cc(Cl)c(N)c3c2OCCO3)CC1`, the AC50 in assay [1] (measured here: GFP channel) is 35.5 µM [falling, single point]; in assay [1] (measured here: RFP channel) it was 35.5 µM [falling, single point]; in assay [2] (setting [14]), 39.8 µM [falling, single point]; in assay [2] (setting [15]), 39.8 µM [falling, single point]; in [3] (setting [18]), 95.3 µM [falling, single point]. The max response was -38.2% in assay [2] (setting [13]) and -34.4% in [2] (setting [16]).
Consider `CN(Cc1cnc2nc(N)nc(N)c2n1)c1ccc(C(=O)N[C@@H](CCC(=O)O)C(=O)O)cc1`, for which the AC50 in [1] (measured here: GFP channel) was 0.178 µM [falling, full curve]; in assay [1] (measured here: RFP channel), 0.178 µM [falling, full curve, poor fit]; in assay [2] (setting [14]) it was 5.62 µM [rising, partial curve, poor fit]; in assay [2] (setting [15]), 28.2 µM [rising, partial curve, poor fit]; in assay [7], 35.5 µM [rising, partial curve, poor fit]; in [8], 2 µM [falling, full curve, poor fit]. Moreover, the AC50 in [11] was 0.49 µM [rising, full curve, poor fit]; in [12] (TFE3-RCC viability, measured here: UOK124 cell viability), 0.0332 µM [falling, full curve]; in assay [12] (TFE3-RCC viability, measured here: UOK145 cell viability), 0.0743 µM [falling, full curve]. The max response in assay [2] (setting [13]) was 30.2%; in assay [2] (setting [16]), 40.2%; in assay [9], 26.9%; in [10] it was 29.9%. Also, the z-score was -0.0318 in [12] (TFE3-RCC UOK109 viability, measured here: UOK109 Z-AUC); -2.26 in assay [12] (TFE3-RCC viability, measured here: UOK124 Z-AUC); -2.1 in assay [12] (TFE3-RCC viability, measured here: UOK145 Z-AUC).
For `NC[C@@H]1O[C@H](C23CC4CC(CC(C4)C2)C3)Cc2c1ccc(O)c2O`, the AC50 was 31.6 µM [falling, single point] in assay [1] (measured here: GFP channel); 22.4 µM [falling, partial curve] in assay [1] (measured here: RFP channel); 28.2 µM [rising, partial curve, poor fit] and 11.2 µM [falling, partial curve] in [2] (setting [14]); 28.2 µM [rising, partial curve] and 11.2 µM [falling, partial curve] in [2] (setting [15]); 33.8 µM [falling, full curve] in assay [3] (setting [17]); 19 µM [falling, full curve] in assay [3] (setting [18]). The max response is 64.1% and -66.2% in assay [2] (setting [13]); 86% and -92.4% in assay [2] (setting [16]).
